Reference: paper PMC8571338
No constants are given. Whether binding was seen depends on the method and setting. Binding seen in cells or lysates may run through a third protein. Some results given as binding are weak or reduced against the parent protein; the word gives no strength.

By UniProt entry, the sequences of proteins in these tests, tags left out.
UniProt O00327: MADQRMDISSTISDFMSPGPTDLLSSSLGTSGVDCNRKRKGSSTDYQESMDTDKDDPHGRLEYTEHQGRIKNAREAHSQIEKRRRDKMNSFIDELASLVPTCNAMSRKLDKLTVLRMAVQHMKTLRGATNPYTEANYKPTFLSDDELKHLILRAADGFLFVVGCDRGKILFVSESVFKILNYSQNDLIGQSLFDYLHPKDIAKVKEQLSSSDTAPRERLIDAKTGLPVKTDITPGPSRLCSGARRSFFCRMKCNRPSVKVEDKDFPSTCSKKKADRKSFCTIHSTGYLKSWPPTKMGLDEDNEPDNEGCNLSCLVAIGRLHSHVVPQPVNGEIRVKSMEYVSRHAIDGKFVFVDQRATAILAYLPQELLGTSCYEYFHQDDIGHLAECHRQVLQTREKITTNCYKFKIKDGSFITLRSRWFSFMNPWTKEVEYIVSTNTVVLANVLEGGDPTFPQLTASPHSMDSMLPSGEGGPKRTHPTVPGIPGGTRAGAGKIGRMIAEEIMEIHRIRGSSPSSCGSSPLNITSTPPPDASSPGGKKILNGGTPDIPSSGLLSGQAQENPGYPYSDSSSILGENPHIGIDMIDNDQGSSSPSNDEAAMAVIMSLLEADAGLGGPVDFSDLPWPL
UniProt P61289: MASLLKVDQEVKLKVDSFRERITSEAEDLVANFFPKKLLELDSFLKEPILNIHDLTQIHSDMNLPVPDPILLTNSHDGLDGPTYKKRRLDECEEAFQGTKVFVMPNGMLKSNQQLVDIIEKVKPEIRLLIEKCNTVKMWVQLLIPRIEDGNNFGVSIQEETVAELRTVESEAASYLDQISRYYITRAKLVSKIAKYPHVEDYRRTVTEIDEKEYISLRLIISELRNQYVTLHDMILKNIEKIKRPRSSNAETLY

Key:
HA-BMAL1 (human) = HA-BMAL1 (human) (UniProt O00327); test: co-IP; Flag-REGγ and HA-BMAL1 transiently co-transfected into 293T cells (2 μg each, 48 h); IP lysis buffer (50 mM Tris-HCl pH 7.5, 1 M EDTA as printed, 150 mM NaCl, 10% glycerol, 1% Nonidet P-40); lysates incubated with HA or Flag beads at 4 °C overnight; western blot
Flag-REGγ = Flag-REGγ (UniProt P61289); test: as above

Row | Substance | binding (HA-BMAL1 (human)) | binding (Flag-REGγ)
1 | Flag-REGγ (from UniProt P61289 1-254) | binds | 
2 | HA-BMAL1 (from UniProt O00327 1-626) |  | binds
